This is one part of the list.

Chains of the proteins cited; added tags and fusions are not shown.
UniProt Q0JBA9, entry or part of it: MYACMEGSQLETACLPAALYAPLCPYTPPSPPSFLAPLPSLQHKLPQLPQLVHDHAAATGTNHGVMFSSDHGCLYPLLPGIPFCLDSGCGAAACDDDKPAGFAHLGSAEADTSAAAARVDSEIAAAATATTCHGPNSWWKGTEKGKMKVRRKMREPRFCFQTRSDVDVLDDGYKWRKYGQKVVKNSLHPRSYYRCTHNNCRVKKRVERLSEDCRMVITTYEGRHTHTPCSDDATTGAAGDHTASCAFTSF

Here are results for 42 sequences from PMC7819943, “Rice protein-binding microarrays: a tool to detect cis-acting elements near promoter regions in rice”.

This assay has as its target OsWRKY34 (Oryza sativa, UniProt Q0JBA9 1-250). As to the kind of experiment: protein-binding microarray (RPBM); PBS, 2% BSA, 51.3 ng/ul salmon testes DNA, 50 uM zinc acetate, 200 nM TF, 25 C, 1 h; high values mean tight binding. To be noted: protein: recombinant; tags: N-terminal polyhistidine and DsRed monomer fusion (pET32a); label: CyDye5-dUTP incorporated in the synthesized complementary strand; 3' TTTTT single-stranded linker to array surface; dsDNA, one strand shown. In outline: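 Ni–NTA purification followed expression in E. coli BL21-CodonPlus of transcription factors fused N-terminally to a polyhistidine tag and DsRed. At 200 nM in PBS with 2% BSA, salmon testes DNA and 50 µM zinc acetate, the protein was incubated for 1 h at 25 °C with a custom Agilent array that had been primer-extended with Cy5-dUTP and blocked with 2% BSA. After washing, the array was read on an Axon 4000B scanner. The binding signal is per-feature fluorescence intensity in arbitrary units.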
On to “GTCTATTCAAATCAACCTTGGCCGCCGTCCTATCCACGGCCGGAGTCACCTAGTGCAG”, for which the binding signal is 8080 fluorescence intensity (a.u.).
Turning to “ATTGGGCTGGAATGAGATTCACGGGAGGGTAACTGGCGGTCGGAGTCACCTAGTGCAG”, the binding signal was 12300 fluorescence intensity (a.u.).
The same measure for “CGTGCTCAACTTTGATCATTCATCTTATTTAAATTTTTTTCGGAGTCACCTAGTGCAG”: 10300 fluorescence intensity (a.u.); for “AACTCTCTCTCTCCAGCTCCACCTTCTCCGAGGCCGCCATCGGAGTCACCTAGTGCAG”: 9790 fluorescence intensity (a.u.); for “TTCTCCCGCTGACCACCTACCTATCTGTATTTGTAATTAACGGAGTCACCTAGTGCAG”: 13300 fluorescence intensity (a.u.).
As for “CTCCTTGGACGCGTTGTTTTTGCATACCCCTTTCGTTTCCCGGAGTCACCTAGTGCAG”, the binding signal is 14700 fluorescence intensity (a.u.).
For “TAGATCGCCGCCGCCGCCGTCGTCTCCGCCCCTCTCCAGCCGGAGTCACCTAGTGCAG” the value was 8940 fluorescence intensity (a.u.).
The same measure for “GACTGCGCCGTCGCCGCGCCAGCCCGGCCGCCTGCCCGCGCGGAGTCACCTAGTGCAG”: 9810 fluorescence intensity (a.u.); for “TTTGTGGTTTAGGGTCATGTATTAGATTTCGATCACTTTTCGGAGTCACCTAGTGCAG”: 12200 fluorescence intensity (a.u.).
In the case of “CATCAGTCGTTAGGGTCGGCACAGCATCTCCATTTTGCTACGGAGTCACCTAGTGCAG”, the binding signal is 9850 fluorescence intensity (a.u.).
Turning to “CCCTGCCTCTCTCTCGTCGCCGCTCGTCCACCGCTGCCTCCGGAGTCACCTAGTGCAG”, the binding signal was 13800 fluorescence intensity (a.u.).
For “TTTGCCTCCTTGCATCCAACCTTCCCAATTGCCCAGTCTACGGAGTCACCTAGTGCAG” the value was 9410 fluorescence intensity (a.u.); for “AATAGTGGTGGTTGGTTATAAAGATTTGCTGCAATGTTTCCGGAGTCACCTAGTGCAG”, 8620 fluorescence intensity (a.u.); for “ACGAATTGGGAGGGGTAAAATGGCATAATGGTAATTAATACGGAGTCACCTAGTGCAG”, 10900 fluorescence intensity (a.u.).
“CGCACTAGAAGTTCTAACAACATCAGCTACTAGGGACCTTCGGAGTCACCTAGTGCAG”: the binding signal is 8380 fluorescence intensity (a.u.).
For “CCTTTTGGCCGGGCACGGCTACCGCTTCTGAATTATACTACGGAGTCACCTAGTGCAG”, the binding signal was 9810 fluorescence intensity (a.u.).
For “ACCTGTTTCGTTCGTCCACGCCAGCGCCAACCGGACATGACGGAGTCACCTAGTGCAG” the value was 9460 fluorescence intensity (a.u.); for “TAACACCATTGTCGCCCGGGACGCGCGCTCTTTCTCTCTCCGGAGTCACCTAGTGCAG”, 12600 fluorescence intensity (a.u.).
For “TTTTATAACATGTTTGTTTTGTACTAATATTTATTTTTTCCGGAGTCACCTAGTGCAG” the value was 9760 fluorescence intensity (a.u.); for “ATATATAAACTGTGCAATTAATTTTTTTTATCTATATATTCGGAGTCACCTAGTGCAG”, 9030 fluorescence intensity (a.u.).
Take “TCCTTTCATTTTTCCTTCTCCTTCGCGTGAAAAACGGACGCGGAGTCACCTAGTGCAG”: the binding signal was 9480 fluorescence intensity (a.u.).
For the sequence “GCTGTTAGTCCAGTGGCAGTTATGTTAGTTTCATACTGTTCGGAGTCACCTAGTGCAG”, the binding signal is 10100 fluorescence intensity (a.u.).
For “TTATCTTGATTGACACGTGGTTTGTTGATGCAGATGGTTTCGGAGTCACCTAGTGCAG” the value was 9290 fluorescence intensity (a.u.); for “GAAATGGTGGTGGGGTGGTTGCCGTTGCCATCCACGACGACGGAGTCACCTAGTGCAG”, 13900 fluorescence intensity (a.u.).
On to “AAATAATTTATACTCAATTAATCATGCGCTAATAGCTACTCGGAGTCACCTAGTGCAG”, for which the binding signal is 8180 fluorescence intensity (a.u.).
Take “GCGGTTTGTATTTGCTGGCTGGTTTGGTTTCCACGCCCTCCGGAGTCACCTAGTGCAG”: the binding signal is 8170 fluorescence intensity (a.u.).
For “CTACATATAAGCACGGCTCATCACTTTGCCATCCAACAATCGGAGTCACCTAGTGCAG” the value was 12000 fluorescence intensity (a.u.).
The same measure for “GCTCTCAATTCAATCTCGCTTAATTCGATCGTCTTCTTCCCGGAGTCACCTAGTGCAG”: 9570 fluorescence intensity (a.u.).
In the case of “CCAACATCTCGTTCTCACCTCTCACTCCTCTCGTCGTCTTCGGAGTCACCTAGTGCAG”, the binding signal was 9400 fluorescence intensity (a.u.).
With “GCTTGTTGCTCTCCTCGCGTGAGCTCTCTCCTCCTCTTCTCGGAGTCACCTAGTGCAG”, the binding signal is 10900 fluorescence intensity (a.u.).
The same measure for “GACAAATTAGTTGTTGACTTATCACACCCTACCCCATCTCCGGAGTCACCTAGTGCAG”: 8540 fluorescence intensity (a.u.); for “CAACGTCCCATTGCCACCTTTTATACTTCTACCTTCTTCACGGAGTCACCTAGTGCAG”: 8940 fluorescence intensity (a.u.).
As to “CATCCGCCTCTTCGGCACCACCCTCGTCTTCGTCGCCGACCGGAGTCACCTAGTGCAG”, the binding signal was 8140 fluorescence intensity (a.u.).
Turning to “TTTGTCTCCTGCGCCTTCGATGAAATACTTACAAGTCGATCGGAGTCACCTAGTGCAG”, the binding signal is 9310 fluorescence intensity (a.u.).
For “ATTAAAATTTTCATACACCCATTTTATATGTTATCTCGAGCGGAGTCACCTAGTGCAG” the value was 8230 fluorescence intensity (a.u.); for “AATTGGATTAATGTGATTTTTTTTCATGCAACATTACTATCGGAGTCACCTAGTGCAG”, 8900 fluorescence intensity (a.u.).
For “GGGGAAAGTTGGTAGTTTGGAAAAAAAGTTGAAAGTTTATCGGAGTCACCTAGTGCAG” the value was 8620 fluorescence intensity (a.u.).
With “ATTGGGTTGGGTTGAGCAATCGATTGCGTTGTTGTTCTTGCGGAGTCACCTAGTGCAG”, the binding signal is 11400 fluorescence intensity (a.u.).
The same measure for “ACTATCAAATGCATCTCTAATTTAGTTTTTTTTATTCGGGCGGAGTCACCTAGTGCAG”: 10000 fluorescence intensity (a.u.); for “TATGTTTTTTCGTGCTCAACTTTGATTGTCCATCTTATTTCGGAGTCACCTAGTGCAG”: 8310 fluorescence intensity (a.u.).
The same measure for “TAGAGTTGATTTTGAGGGTTTTTTCATCGTAGCTTATTTTCGGAGTCACCTAGTGCAG”: 9410 fluorescence intensity (a.u.).
As for “CGACCACCACCAAGCGAGCCCAGCAACAGTTTCACACTTTCGGAGTCACCTAGTGCAG”, the binding signal was 10100 fluorescence intensity (a.u.).
